Laboratory results: patent US20210163923A1

Key:
[1] = molecular target: Hsp70 conjugated with DyLight 633; experiment: flow cytometry, IgG displayed on HEK293 cells
[2] = molecular target: Hsp90 conjugated with DyLight 633; experiment: flow cytometry, IgG displayed on HEK293 cells
[3] = molecular target: Hsp70 conjugated with DyLight 633; experiment: flow cytometry, IgG displayed on HEK293 cells, Hsp70-DyLight 633 (column Chaperones)
[4] = molecular target: Hsp90 conjugated with DyLight 633; experiment: flow cytometry, IgG displayed on HEK293 cells, Hsp90-DyLight 633 (column Chaperones)
[5] = molecular target: Hsp70 conjugated with DyLight 633; experiment: flow cytometry of HEK293 cells displaying the IgG, stained with Hsp70-DyLight 633
[6] = molecular target: Hsp90 conjugated with DyLight 633; experiment: flow cytometry of HEK293 cells displaying the IgG, stained with Hsp90-DyLight 633
[7] = molecular target: Hsp70 conjugated with DyLight 633; experiment: flow cytometry of HEK293 cells displaying the IgG, double-stained with Hsp70-DyLight 633 and anti-human Fc PE
[8] = molecular target: Hsp90 conjugated with DyLight 633; experiment: flow cytometry of HEK293 cells displaying the IgG, double-stained with Hsp90-DyLight 633 and anti-human Fc PE

Measured: binding

B1: Briakinumab (antibody, V domains shown)
VH: QVQLVESGGGVVQPGRSLRLSCAASGFTFSSYGMHWVRQAPGKGLEWVAFIRYDGSNKYYADSVKGRFTISRDNSKNTLYLQMNSLRAEDTAVYYCKTHGSHDNWGQGTMVTVS
VL: QSVLTQPPSVSGAPGQRVTISCSGSRSNIGSNTVKWYQQLPGTAPKLLIYYNDQRPSGVPDRFSGSKSGTSASLAITGLQAEDEADYYCQSYDRYTHPALLFGTGTKVTVLGQP
binds: [1] | [2] | [3] | [4] | [5] | [6] | [7] | [8]

No constants are given. Whether binding was seen depends on the method and setting. Binding can be weak; no strength is given.
